The other results are listed elsewhere or left out.

Amino acid sequences for entries named in this document (tags omitted). A change or cut given only in a name is not applied to a line headed by its entry.
UniProt Q08623: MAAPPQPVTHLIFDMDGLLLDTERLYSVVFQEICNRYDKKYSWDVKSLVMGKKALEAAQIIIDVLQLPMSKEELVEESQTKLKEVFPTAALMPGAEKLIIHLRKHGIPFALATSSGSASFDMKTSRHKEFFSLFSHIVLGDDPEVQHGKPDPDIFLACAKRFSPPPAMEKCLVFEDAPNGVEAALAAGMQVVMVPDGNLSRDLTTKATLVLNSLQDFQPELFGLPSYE
UniProt P60900, whole entry, looked up: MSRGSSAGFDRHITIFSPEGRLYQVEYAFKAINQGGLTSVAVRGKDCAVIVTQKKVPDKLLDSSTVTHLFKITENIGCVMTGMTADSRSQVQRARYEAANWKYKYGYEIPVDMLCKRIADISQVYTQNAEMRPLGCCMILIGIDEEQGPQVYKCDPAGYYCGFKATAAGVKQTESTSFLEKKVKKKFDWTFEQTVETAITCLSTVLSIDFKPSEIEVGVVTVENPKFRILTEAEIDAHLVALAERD
UniProt Q9BVG9: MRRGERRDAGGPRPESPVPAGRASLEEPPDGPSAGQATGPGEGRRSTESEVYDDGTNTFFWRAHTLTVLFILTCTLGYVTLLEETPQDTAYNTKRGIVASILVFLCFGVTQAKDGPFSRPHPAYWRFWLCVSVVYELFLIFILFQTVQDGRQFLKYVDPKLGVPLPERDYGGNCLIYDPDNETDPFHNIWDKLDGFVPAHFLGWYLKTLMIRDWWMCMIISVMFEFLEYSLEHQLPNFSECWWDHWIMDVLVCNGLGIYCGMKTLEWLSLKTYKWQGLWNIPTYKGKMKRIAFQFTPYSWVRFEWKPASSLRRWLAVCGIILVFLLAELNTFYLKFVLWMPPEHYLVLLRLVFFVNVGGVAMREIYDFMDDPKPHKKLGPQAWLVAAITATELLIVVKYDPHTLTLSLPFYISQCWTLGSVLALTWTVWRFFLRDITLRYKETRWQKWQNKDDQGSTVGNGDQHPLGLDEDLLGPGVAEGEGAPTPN
UniProt Q8TBF2: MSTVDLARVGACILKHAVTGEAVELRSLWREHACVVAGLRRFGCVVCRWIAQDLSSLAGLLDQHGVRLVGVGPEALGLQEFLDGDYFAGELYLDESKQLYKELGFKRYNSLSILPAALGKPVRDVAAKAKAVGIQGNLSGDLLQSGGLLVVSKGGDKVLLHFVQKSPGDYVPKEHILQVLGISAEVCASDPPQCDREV
UniProt Q8WUY3: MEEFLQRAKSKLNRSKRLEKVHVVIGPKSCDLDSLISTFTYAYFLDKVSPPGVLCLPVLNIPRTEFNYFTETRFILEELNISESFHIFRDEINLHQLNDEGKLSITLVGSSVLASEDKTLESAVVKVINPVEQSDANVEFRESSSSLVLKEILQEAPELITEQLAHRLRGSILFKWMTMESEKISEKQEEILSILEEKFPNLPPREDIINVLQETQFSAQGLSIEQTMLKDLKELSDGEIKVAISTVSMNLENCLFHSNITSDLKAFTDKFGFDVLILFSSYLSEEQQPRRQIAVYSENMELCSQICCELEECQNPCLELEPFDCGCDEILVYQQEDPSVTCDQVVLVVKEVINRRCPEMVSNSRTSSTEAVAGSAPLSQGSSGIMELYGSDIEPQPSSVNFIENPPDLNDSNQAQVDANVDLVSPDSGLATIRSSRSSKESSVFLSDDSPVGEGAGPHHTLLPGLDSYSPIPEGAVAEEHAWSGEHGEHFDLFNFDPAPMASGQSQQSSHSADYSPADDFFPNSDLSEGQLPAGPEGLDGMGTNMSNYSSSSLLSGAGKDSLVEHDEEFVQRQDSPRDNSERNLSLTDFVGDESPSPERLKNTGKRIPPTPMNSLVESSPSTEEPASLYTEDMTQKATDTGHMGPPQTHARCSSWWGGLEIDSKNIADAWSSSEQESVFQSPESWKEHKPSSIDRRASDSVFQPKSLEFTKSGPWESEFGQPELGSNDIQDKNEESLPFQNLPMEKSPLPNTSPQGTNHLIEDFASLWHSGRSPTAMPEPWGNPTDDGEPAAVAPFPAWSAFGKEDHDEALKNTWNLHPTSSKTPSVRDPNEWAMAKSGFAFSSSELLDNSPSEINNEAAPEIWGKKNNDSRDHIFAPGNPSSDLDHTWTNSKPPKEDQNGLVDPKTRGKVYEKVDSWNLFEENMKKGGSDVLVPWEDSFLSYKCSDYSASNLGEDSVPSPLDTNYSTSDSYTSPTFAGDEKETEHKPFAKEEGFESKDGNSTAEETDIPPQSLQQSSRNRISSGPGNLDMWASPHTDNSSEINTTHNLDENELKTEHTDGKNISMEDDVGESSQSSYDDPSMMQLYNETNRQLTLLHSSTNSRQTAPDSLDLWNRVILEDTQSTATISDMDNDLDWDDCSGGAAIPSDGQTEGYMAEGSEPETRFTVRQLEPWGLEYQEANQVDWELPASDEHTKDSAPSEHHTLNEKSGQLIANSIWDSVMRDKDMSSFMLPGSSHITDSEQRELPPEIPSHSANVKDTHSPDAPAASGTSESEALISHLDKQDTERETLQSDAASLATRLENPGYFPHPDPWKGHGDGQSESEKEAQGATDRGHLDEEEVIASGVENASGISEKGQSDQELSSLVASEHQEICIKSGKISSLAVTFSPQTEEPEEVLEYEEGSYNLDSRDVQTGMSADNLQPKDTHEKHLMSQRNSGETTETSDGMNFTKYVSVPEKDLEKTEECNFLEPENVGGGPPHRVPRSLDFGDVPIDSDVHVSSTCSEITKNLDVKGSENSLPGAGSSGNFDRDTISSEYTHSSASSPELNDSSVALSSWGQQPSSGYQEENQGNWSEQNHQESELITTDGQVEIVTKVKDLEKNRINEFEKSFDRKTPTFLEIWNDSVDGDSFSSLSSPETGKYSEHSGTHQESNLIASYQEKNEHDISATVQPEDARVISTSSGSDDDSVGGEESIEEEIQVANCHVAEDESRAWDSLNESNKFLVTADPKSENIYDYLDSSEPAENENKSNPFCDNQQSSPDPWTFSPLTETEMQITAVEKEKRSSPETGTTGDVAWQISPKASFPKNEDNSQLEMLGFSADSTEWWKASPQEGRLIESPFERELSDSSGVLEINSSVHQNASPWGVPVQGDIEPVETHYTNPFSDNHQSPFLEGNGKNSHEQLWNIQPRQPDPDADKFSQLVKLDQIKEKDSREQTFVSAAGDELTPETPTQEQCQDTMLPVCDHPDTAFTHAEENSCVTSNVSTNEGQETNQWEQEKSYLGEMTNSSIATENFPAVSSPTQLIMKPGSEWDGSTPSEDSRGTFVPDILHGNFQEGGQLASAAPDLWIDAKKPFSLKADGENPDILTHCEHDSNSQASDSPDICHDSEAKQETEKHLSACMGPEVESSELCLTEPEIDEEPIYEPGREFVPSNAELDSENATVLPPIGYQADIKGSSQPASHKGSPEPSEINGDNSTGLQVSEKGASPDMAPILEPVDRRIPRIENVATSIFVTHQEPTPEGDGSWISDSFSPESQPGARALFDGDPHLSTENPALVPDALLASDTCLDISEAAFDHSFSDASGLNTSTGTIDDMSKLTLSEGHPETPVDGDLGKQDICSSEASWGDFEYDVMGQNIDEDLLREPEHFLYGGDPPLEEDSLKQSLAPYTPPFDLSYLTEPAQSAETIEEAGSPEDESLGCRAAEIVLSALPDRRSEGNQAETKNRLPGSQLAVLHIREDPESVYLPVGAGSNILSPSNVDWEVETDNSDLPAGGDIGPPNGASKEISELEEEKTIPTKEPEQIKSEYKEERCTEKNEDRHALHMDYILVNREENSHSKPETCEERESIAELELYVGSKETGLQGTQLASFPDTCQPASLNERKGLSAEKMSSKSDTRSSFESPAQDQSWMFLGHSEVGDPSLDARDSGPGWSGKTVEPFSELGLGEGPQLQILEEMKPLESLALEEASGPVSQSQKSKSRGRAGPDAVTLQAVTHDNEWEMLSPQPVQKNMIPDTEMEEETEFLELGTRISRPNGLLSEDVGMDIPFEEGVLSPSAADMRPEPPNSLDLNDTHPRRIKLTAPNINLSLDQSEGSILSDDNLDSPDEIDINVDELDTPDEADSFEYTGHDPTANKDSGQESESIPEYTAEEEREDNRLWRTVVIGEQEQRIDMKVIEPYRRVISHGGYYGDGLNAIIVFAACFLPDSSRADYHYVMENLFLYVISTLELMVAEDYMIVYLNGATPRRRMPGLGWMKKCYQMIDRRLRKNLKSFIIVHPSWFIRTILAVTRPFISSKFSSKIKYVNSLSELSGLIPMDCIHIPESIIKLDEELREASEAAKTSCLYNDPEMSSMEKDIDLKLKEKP
UniProt Q9BXR0: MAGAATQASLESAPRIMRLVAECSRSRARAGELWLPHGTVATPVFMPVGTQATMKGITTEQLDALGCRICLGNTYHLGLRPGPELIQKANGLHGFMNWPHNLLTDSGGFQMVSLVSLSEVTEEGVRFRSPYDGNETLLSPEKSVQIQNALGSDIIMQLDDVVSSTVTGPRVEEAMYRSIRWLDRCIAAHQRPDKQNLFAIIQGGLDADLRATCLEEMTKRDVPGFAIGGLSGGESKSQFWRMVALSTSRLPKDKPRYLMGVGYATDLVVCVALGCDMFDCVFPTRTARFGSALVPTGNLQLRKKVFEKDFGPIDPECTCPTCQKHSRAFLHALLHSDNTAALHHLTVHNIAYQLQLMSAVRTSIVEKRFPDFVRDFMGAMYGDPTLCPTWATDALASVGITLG
UniProt Q9NXS2: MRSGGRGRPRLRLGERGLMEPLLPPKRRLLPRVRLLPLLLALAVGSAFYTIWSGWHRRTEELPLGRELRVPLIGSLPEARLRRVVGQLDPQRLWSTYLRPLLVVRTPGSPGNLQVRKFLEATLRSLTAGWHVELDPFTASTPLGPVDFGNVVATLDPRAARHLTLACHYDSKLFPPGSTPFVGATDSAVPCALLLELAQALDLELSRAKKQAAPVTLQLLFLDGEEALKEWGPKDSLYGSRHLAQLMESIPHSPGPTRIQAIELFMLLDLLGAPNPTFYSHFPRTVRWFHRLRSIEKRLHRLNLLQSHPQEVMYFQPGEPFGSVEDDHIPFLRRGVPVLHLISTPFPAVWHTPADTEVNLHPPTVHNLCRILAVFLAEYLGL
UniProt P25786: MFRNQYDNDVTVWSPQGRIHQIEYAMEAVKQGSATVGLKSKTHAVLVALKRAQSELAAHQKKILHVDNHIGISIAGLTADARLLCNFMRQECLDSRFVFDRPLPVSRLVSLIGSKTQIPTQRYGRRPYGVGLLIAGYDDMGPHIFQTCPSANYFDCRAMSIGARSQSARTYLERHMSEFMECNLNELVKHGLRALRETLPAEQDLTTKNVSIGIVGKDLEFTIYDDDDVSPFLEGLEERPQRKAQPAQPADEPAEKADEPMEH
UniProt Q03393: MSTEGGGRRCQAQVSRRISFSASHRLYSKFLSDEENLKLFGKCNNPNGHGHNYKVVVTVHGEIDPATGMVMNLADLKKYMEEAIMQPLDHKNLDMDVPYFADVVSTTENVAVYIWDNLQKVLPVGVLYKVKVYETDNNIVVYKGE
UniProt P20618: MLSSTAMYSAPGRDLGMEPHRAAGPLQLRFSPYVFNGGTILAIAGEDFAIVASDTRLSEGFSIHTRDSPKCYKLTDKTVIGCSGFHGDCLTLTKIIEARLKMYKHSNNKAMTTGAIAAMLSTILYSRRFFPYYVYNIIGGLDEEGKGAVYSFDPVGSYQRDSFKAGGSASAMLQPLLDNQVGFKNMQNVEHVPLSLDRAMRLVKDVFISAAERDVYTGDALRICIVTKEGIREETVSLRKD
UniProt Q9BT73: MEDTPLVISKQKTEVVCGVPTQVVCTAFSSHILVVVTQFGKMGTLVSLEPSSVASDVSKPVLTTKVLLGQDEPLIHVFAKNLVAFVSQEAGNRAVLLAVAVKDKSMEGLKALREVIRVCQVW
UniProt Q969U7: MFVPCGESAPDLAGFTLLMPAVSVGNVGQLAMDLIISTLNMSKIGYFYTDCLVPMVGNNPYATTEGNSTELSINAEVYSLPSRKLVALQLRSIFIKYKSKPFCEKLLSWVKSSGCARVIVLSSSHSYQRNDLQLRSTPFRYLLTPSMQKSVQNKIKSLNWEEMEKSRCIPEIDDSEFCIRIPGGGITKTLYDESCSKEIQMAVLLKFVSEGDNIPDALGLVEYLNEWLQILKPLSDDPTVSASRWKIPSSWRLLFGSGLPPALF
UniProt Q9UL46, whole entry, looked up: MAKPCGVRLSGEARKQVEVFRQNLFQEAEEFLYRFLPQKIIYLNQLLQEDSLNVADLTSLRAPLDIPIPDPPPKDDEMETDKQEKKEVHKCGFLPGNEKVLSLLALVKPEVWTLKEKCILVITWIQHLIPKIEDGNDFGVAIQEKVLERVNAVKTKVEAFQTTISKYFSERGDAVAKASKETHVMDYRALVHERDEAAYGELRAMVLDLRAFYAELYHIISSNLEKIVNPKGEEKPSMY
UniProt P40306: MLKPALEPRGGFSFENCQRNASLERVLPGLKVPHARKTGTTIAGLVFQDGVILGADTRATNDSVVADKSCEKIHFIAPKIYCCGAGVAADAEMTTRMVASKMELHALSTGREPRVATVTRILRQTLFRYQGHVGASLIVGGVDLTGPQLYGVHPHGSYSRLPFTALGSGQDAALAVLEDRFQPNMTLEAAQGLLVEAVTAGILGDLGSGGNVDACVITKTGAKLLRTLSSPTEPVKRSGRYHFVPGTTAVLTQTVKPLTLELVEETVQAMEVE

Compound in this experiment: c1cn2cc(-c3ccc4cn[nH]c4c3)nc(Nc3ccc(N4CCOCC4)cc3)c2n1 [entospletinib]
The experiment is described as follows: log2 fold change, soluble protein after heating vs DMSO (PISA); higher = thermal stabilisation; K562 cells, 10 uM, 30 min; active = over 0.2 and 3.5 SD of the protein, either way, in both replicates (recomputed). In outline: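 Values are thermal stability changes relative to control samples and are taken from duplicates. They are stated as log2 fold changes. Before quantification by TMTpro 16plex LC-MS/MS with equalised channel sums, K562 cells at 2×10^6 cells/mL were treated with 10 μM compound for 30 min, heated in aliquots for 3 min across 48°C-58°C, pooled, extracted in PBS with 0.5% NP-40 at 4°C, and centrifuged at 21,000xg for 90 min to give the soluble supernatant.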
Turning to PUDP isoform 4 (UniProt Q08623), the log2 fold change is inactive: 0.032.

As to PSMA6 (UniProt P60900), the log2 fold change is inactive: -0.011.

Regarding PSMG1 (UniProt O95456), the log2 fold change was inactive: -0.041.

Consider PTDSS2 (UniProt Q9BVG9), for which the log2 fold change was inactive: -0.002.

Regarding PUS10 (UniProt Q3MIT2), the log2 fold change was inactive: -0.029.

Regarding PSMD4 (UniProt P55036), the log2 fold change is inactive: 0.027.

On to PRXL2B isoform 3 (UniProt Q8TBF2), for which the log2 fold change was inactive: -0.058.

With PRUNE2 isoform 3 (UniProt Q8WUY3), the log2 fold change was inactive: 0.24.

For QTRT1 (UniProt Q9BXR0), the log2 fold change was inactive: -0.001.

Turning to PTPRA (UniProt P18433), the log2 fold change was inactive: -0.014.

Take PRTFDC1 (UniProt Q9NRG1): the log2 fold change was inactive: -0.01.

As to PYCR1 (UniProt J3QKT4), the log2 fold change was inactive: -0.222.

QPCTL (UniProt Q9NXS2): the log2 fold change is inactive: 0.027.

Take PTPN7 isoform 3 (UniProt P35236): the log2 fold change was inactive: 0.214.

For the target PSMA1 isoform 2 (UniProt P25786), the log2 fold change was inactive: 0.046.

As to PTK7 isoform 6 (UniProt Q13308), the log2 fold change is inactive: -0.034.

Turning to PTS (UniProt Q03393), the log2 fold change was inactive: 0.008.

PXMP2 (UniProt Q9NR77): the log2 fold change was inactive: -0.018.

Turning to PSRC1 (UniProt Q6PGN9), the log2 fold change was inactive: 0.05.

For the target PXN (UniProt P49023), the log2 fold change was inactive: -0.001.

For PSMB1 (UniProt P20618), the log2 fold change is inactive: 0.022.

Take PSMG3 (UniProt Q9BT73): the log2 fold change was inactive: 0.008.

PSMF1 (UniProt Q92530): the log2 fold change is inactive: 0.024.

PSMG2 (UniProt Q969U7): the log2 fold change was inactive: -0.021.

Regarding PSMB2, A0A087WVV1, the log2 fold change is inactive: -0.539.

As for R3HDM1 isoform 2 (UniProt Q15032), the log2 fold change was inactive: -0.165.

In the case of PSME2 (UniProt Q9UL46), the log2 fold change is inactive: 0.

Take PSMA2 (UniProt P25787): the log2 fold change was inactive: 0.025.

As to QDPR (UniProt P09417), the log2 fold change is inactive: -0.018.

Turning to PUS3 (UniProt Q9BZE2), the log2 fold change is inactive: -0.047.

Regarding PSMB10 (UniProt P40306), the log2 fold change was inactive: -0.004.

On to PSIP1 (UniProt V9GYT7), for which the log2 fold change was inactive: -0.089.

Values taken from the supplement of paper PMC10849652.
